Source: US20210393807A1, “PHOTOACOUSTIC VOLTAGE-SENSITIVE DYES FOR IN VIVO IMAGING” (The Johns Hopkins University, priority 2016, published 2021)

Tests used:
[1] = Spectrophotometric measurements of near-infrared VSD in lipid vesicle phantom; format: physicochemical
Source text: 2.5.1 Photoacoustic imaging setup. For the recording of electrophysiological brain activities in vivo, an ultrasound research system was utilized that consisted of ultrasound array transducer (L 14-5/38) connected to a real-time data acquisition system (SonixDAQ, Ultrasonix Medical Corp., Canada). To induce the PA signals, pulsed laser light was generated by a second-harmonic (532 nm) Nd:YAG laser pumping an optical parametric oscillator (OPO) system (Phocus Inline, Opotek Inc., USA). The tunable range of the laser system was 690-900 nm and the maximum pulse repetition frequency was 20 Hz. The laser pulse was delivered into the probe through bifurcated fiber optic bundles, each 40 mm long and 0.88 mm wide. The PA probe was located at around the Interaural 11.2 mm and Bregma 2.2 mm to obtain the cross-section of motor cortexes (FIG. 15). […]
Otherwise, 2.5 μL of 1 mM gramicidin, a nonspecific monovalent cation ionophore, enables Na+ cations to move from outside to inside of vesicle membranes to short circuit the membrane potential (depolarized state). From these controls, our near-infrared VSD positively charged can move in and out through the vesicle membrane, leading to the change in fluorescence quenching depending on their aggregation status.

[2] = Spectrophoto/fluorometric characterization of PA-VSD in lipid vesicle suspension (valinomycin/gramicidin); format: physicochemical
Method: Lipid vesicles were prepared from 25-mg soybean phosphatidylcholine (type II) suspended in 1 mL of K^+ buffer, which contains 100 mM K2SO4 and 20 mM HEPES. […] A Na^+ buffer containing 100 mM Na2SO4 and 20 mM HEPES was prepared. During experiments, 10 μL of vesicle suspension was added to 1 mL of Na^+ buffer, resulting in an approximately 100:1 K^+ gradient across vesicle membrane. VSD was added to this suspension. When 2.5 μL of 10 μM valinomycin—a K^+ specific ionophore—was added, K^+ ions were transported from inside to outside of vesicle membranes, resulting in a negative membrane potential. This negative potential drives the positively charged VSDs into the vesicles, which causes aggregation of dyes and quenching of fluorescence. Subsequent addition of 2.5 μL of 1 mM gramicidin, a nonspecific monovalent cation ionophore, allows Na^+ cations to move from outside to inside of vesicle membranes to short circuit the membrane potential.
A combined spectrophoto/fluorometer system (Spectramax i3x, Molecular Devices) was used to measure both fluorescence and absorbance of the PA-VSD with 1, 3, 6, and 9 μM concentrations. For fluorescence, the measurement was conducted for the spectral range from 750 to 850 nm at 10-nm increment, and the absorbance was measured in the range from 600 to 900 nm at 5-nm increments. […]

Structure (SMILES): CCCN1/C(=C/C=C2\CCCC(/C=C/C3=[N+](CCC)c4ccccc4C3(C)C)=C2Cl)C(C)(C)c2ccccc21.[I-] [IR780, IR780 perchlorate]
- ratio of absorbance in depolarized states compared to polarized states (Cabs) [1]: 0.97
- ratio of fluorescence emission in depolarized states compared to polarized states (CF) [1]: 0.60

Structure (SMILES): CCN1/C(=C/C=C/C=C/C=C/C2=[N+](CC)c3ccc4ccccc4c3C2(C)C)C(C)(C)c2c1ccc1ccccc21.[I-] [PAVSD800-2]
- fluorescence quenching effect relative to absorption change ([2]; 9 μM concentration, absorbance 800 nm, fluorescence 825 nm): eight times stronger
- fluorescence change in negative control ([2]; K+ buffer inside and outside the vesicles, valinomycin and gramicidin added): absence of a fluorescence change
